Our source for the binding values is article PMC6387362.

Results are given in words; binding and its absence hold for the method and conditions named. In cells and extracts the contact can be indirect. A result given as binding can be weak or reduced; the word gives no strength. Sequences can lack the tags named with a protein.

For assay [1], the target named is MPD1-GFP (membrane proximal domain of TRPV1 fused to sfGFP) (UniProt O35433). Briefly: pull-down; purified MPD-GFP added to lysates of HEK293 cells transfected with MYC-tagged Snapin or Synaptotagmin-IX, 2 h at 4 °C; MPD-GFP immobilised on GFP-Trap A beads, 2 h at 4 °C; washed with lysis buffer; immunoblot; only the target purified.
Assay [2] has as its target MPD2-GFP (membrane proximal domain of TRPV2 fused to sfGFP) (UniProt Q9WUD2). The description is as above.

B1: Snapin c-myc-tagged (protein, UniProt O95295 1-136)
chain: MAGAGSAAVSGAGTPVAGPTGRDLFAEGLLEFLRPAVQQLDSHVHAVRESQVELREQIDNLATELCRINEDQKVALDLDPYVKKLLNARRRVVLVNNILQNAQERLRRLNHSVAKETARRRAMLDSGIYPPGSPGK
Consider B1, for which the binding entry in assay [1] and in assay [2] was “binds” each time.
